Record: PubChem BioAssay AID1259291 (Sanger Institute, 2017)

- Test: 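Search for gene knock-downs that act synergistically alongside anchor drugs to kill cells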 (primary screen)
- System: HT29 human colorectal cancer cells
- Reagents: siRNA pool against human genes
- Treatment: anchor drugs added a day after transfection: BYL719 at 1 µM, cetuximab at 5 µg/ml or trametinib at 10 nM, or DMSO vehicle alone
- Measured: 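Replicate-averaged viability relative to non-targeting pool, robust z-score based on control wells, plus per-drug synergy score for 1 µM BYL719, 5 µg/ml cetuximab and 10 nM trametinib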
- Scale: robust z-score, knock-down alone and viability, knock-down alone: higher = more viable cells; synergy score with BYL719 and synergy score with cetuximab: higher = stronger synergistic killing with drug
- Active means: 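Essential when the robust z-score for knock-down without any drug is below -3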
- Calls: active = essential (knock-down alone); inactive = no change alone
The deposit covers 794 reagents; this is a random part of them. Over the whole deposit, 15 (1.9%) got an active call. 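Calls rest on knock-down alone; drug synergy scores do not affect them; drugs added a day post-transfection, DMSO vehicle as comparison.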 Entries without a mark were called inactive. No viability above 1 is reported: the scale is capped. Further read-outs or replicates are left out here. Reagent sequences are not shown. Not stated in the record: the amount of reagent, the time to read-out.

The opening 2 entries, ahead of the listing:
Gene,"robust z-score, knock-down alone","viability, knock-down alone (fraction of control)",synergy score with BYL719,synergy score with cetuximab
EFNB3,-0.842,0.913,-0.102,-0.0866
IP6K2,0.552,1,-0.0451,0.0257

Main list, from the start:
Gene,"robust z-score, knock-down alone","viability, knock-down alone (fraction of control)",synergy score with BYL719,synergy score with cetuximab
EFNB3,-0.842,0.913,-0.102,-0.0866
IP6K2,0.552,1,-0.0451,0.0257
PLK1,-3.58 (active),0.744,0.199,0.0674
CDK17,0.552,1,0.00406,0.0276
STK31,0.552,1,0.00763,0.0543
HSPB8,0.352,0.988,0.0232,0.0648
LMBR1,-0.225,0.952,0.0091,-0.0293
NRAS,0.552,1,0.0974,0.205
CLK1,0.552,1,-0.158,0
SCYL3,0.326,0.986,-0.0123,0.0259
SKAP1,0.552,1,-0.0424,0.0593
NADK,0.552,1,0.1,0.0766
CDK4,0.552,1,-0.024,0
GUCY2D,-6.33 (active),0.573,-0.108,0.0286
MAP3K11,-0.211,0.953,-0.0262,-0.0474
IGF2R,0.552,1,-0.077,0
CDKN2D,0.552,1,0.0591,0.161
FGFR1,0.374,0.989,0.00229,0.0156
SGK3,-0.357,0.944,-0.148,-0.0231
PIK3R1,0.552,1,-0.00249,0.00442
